Experimental data reported in article PMC10076531.
No constants are given. Whether binding was seen depends on the method and setting. Some results given as binding are weak or reduced against the parent protein; the word gives no strength. For part of these data: Sequences can lack the tags named with a protein.

The chains behind the UniProt entries cited, without tags or fusion partners. Residues count along the entry.
UniProt Q9Y397, residues 2-364: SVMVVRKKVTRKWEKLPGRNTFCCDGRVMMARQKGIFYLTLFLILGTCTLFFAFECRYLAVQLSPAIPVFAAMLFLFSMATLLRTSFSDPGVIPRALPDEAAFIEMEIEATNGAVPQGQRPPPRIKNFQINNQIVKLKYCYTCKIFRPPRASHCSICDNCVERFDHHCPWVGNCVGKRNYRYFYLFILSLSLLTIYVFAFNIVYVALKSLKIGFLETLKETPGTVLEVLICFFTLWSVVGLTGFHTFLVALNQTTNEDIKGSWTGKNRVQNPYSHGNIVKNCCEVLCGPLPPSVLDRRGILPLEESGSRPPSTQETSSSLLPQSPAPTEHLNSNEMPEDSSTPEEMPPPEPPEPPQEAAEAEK
UniProt Q8IZN3, residues 2-488: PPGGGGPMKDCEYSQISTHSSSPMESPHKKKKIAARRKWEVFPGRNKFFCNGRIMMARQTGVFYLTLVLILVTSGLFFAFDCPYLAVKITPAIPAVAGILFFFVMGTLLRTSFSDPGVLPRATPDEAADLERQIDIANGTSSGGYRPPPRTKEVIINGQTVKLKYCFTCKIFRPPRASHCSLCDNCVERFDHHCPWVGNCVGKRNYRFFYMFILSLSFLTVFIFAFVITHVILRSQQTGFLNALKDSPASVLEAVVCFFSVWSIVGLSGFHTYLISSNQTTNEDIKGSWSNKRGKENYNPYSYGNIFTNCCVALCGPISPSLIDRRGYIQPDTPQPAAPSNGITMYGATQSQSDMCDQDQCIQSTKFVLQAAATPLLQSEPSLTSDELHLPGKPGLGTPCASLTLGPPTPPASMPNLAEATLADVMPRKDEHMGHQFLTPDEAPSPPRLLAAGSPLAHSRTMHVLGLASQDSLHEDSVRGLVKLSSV
UniProt Q7Z5G4, residues 2-137: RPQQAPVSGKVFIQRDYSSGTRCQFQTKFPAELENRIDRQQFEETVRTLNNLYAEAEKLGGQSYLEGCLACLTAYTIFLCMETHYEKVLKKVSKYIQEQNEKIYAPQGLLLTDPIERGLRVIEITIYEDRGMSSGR

Experiments:
Assay in all cases: SEC; the two strep-tagged proteins co-expressed in Sf9 cells, solubilised in 1% DDM, purified on StrepTactin resin, then Superdex 200 in 150 mM NaCl, 20 mM HEPES pH 7.4, 0.5 mM TCEP, 15% glycerol, 0.5 mM DDM; fractions on SDS-PAGE with Coomassie; both purified
[1] = target: Palmitoyltransferase ZDHHC9 (DHHC9) with a C-terminal strep-tag (human) (UniProt Q9Y397)
[2] = target: DHHC14 with an N-terminal strep-tag (human) (UniProt Q8IZN3)
[3] = target: T1, DHHC18 with an N-terminal strep-tag (human) (UniProt Q9NUE0)
T1 sequence: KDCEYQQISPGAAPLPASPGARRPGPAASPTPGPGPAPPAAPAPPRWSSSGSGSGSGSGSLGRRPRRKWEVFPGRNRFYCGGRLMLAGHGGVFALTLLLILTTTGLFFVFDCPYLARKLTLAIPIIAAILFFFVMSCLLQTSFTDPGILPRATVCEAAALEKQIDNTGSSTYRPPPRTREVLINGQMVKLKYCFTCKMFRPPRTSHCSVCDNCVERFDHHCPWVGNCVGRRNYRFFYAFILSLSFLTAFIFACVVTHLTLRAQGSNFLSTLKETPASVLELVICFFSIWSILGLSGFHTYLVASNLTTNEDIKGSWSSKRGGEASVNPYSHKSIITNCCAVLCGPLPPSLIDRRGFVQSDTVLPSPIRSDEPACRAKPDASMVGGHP

Measured: binding

GCP16 (GOLGA7) with a C-terminal strep-tag (from UniProt Q7Z5G4 2-137)
binds: all assays above
